# Measurements as given in the supplement of paper PMC10849652.
# Protein sequences, listed by entry. Tags and fused reporters are not part of them. Lines headed by an entry give the natural chain unless they say otherwise; changes in a name come on top.
# UniProt Q96JX3: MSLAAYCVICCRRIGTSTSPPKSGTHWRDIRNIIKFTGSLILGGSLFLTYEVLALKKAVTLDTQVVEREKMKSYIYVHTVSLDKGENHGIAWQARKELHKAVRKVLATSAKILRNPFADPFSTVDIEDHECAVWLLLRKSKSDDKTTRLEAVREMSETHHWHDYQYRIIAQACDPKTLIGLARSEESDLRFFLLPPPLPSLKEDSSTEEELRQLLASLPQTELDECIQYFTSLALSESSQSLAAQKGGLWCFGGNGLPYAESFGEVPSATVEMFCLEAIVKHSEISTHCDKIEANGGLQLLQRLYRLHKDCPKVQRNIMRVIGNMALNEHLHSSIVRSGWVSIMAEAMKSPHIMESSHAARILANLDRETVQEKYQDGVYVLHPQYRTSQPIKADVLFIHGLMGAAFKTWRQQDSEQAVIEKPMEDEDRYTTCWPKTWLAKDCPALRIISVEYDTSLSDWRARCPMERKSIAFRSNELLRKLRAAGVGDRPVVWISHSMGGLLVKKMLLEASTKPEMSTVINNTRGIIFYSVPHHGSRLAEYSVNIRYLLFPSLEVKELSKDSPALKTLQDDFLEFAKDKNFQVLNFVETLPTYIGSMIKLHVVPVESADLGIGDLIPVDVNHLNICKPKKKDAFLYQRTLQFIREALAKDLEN
# UniProt Q99963: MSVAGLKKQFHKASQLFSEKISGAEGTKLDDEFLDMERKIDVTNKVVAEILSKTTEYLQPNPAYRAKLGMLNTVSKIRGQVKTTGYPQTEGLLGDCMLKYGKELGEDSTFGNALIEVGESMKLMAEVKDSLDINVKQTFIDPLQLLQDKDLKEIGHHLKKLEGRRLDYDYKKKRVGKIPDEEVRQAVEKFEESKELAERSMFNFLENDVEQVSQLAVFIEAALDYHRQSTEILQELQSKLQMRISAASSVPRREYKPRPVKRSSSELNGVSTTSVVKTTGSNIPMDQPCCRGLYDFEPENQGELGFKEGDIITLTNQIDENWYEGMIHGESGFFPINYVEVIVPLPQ
# UniProt Q8WV19: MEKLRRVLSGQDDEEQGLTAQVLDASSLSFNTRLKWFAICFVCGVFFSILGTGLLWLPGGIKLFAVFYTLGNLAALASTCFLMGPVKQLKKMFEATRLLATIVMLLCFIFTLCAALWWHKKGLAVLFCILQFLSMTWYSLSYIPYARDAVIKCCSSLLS
# UniProt Q2M3G4: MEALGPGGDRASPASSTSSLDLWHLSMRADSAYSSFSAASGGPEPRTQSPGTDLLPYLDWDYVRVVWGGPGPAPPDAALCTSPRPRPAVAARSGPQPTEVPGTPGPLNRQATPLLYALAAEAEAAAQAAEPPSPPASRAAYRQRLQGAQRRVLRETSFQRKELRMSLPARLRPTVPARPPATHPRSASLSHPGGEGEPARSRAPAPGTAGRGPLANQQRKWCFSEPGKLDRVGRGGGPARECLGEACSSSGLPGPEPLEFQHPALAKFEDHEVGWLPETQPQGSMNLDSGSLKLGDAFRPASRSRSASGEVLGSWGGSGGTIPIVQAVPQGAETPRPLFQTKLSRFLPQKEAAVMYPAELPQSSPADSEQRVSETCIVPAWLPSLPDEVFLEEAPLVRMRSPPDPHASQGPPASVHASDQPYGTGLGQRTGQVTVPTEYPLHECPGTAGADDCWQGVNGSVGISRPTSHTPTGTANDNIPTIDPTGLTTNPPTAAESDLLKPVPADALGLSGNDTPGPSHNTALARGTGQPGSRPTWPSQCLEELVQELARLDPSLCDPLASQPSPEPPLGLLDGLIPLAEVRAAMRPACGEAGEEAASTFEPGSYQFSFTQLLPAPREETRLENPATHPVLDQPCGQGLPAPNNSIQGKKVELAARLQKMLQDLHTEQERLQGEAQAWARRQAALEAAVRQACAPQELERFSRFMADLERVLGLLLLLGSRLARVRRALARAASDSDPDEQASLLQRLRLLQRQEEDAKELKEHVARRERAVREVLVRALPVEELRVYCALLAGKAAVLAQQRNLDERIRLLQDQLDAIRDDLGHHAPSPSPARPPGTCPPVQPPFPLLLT
# UniProt Q8WVK7: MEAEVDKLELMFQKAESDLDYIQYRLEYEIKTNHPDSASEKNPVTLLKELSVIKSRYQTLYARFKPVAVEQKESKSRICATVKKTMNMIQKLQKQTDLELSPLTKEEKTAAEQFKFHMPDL
# UniProt Q9H0K1: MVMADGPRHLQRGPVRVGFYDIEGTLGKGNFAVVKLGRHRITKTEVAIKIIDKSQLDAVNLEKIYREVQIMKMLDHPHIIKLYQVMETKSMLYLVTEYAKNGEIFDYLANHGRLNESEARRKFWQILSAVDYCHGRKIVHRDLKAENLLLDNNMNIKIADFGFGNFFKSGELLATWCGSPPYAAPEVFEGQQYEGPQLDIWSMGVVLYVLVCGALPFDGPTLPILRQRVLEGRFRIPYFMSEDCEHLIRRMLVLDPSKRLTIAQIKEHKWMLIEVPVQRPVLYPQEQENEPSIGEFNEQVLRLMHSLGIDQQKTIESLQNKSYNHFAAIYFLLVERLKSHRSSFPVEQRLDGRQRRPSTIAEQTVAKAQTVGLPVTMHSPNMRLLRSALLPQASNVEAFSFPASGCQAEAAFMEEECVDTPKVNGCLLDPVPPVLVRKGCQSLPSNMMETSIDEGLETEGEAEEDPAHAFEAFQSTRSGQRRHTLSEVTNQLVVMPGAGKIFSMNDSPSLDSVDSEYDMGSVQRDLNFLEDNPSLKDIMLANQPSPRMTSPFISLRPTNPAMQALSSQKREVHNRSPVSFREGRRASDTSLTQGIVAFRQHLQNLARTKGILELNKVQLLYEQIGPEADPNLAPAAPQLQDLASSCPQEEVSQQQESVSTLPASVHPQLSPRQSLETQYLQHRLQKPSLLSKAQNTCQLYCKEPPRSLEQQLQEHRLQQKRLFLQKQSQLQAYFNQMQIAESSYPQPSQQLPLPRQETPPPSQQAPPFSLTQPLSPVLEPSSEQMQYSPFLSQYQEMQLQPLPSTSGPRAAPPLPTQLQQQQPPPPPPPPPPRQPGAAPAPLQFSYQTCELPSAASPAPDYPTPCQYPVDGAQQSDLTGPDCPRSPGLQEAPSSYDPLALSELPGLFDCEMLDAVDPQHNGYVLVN
# UniProt Q96BD8: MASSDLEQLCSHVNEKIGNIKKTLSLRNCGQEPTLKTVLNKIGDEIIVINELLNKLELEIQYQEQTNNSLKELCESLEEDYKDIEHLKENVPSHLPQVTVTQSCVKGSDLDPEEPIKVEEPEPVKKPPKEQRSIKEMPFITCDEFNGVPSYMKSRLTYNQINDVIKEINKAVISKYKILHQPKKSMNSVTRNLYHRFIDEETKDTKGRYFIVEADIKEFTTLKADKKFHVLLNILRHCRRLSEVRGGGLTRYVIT
# UniProt O43255: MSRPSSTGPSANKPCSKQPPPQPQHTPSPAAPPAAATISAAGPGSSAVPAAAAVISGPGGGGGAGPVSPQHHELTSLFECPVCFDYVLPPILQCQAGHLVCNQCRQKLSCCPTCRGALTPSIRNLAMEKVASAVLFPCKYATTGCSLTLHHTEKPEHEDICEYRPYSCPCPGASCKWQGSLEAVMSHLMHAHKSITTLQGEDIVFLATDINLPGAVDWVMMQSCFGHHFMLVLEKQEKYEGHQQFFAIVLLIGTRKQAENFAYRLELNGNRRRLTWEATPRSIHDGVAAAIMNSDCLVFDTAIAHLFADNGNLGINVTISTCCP
# UniProt Q9BRG2: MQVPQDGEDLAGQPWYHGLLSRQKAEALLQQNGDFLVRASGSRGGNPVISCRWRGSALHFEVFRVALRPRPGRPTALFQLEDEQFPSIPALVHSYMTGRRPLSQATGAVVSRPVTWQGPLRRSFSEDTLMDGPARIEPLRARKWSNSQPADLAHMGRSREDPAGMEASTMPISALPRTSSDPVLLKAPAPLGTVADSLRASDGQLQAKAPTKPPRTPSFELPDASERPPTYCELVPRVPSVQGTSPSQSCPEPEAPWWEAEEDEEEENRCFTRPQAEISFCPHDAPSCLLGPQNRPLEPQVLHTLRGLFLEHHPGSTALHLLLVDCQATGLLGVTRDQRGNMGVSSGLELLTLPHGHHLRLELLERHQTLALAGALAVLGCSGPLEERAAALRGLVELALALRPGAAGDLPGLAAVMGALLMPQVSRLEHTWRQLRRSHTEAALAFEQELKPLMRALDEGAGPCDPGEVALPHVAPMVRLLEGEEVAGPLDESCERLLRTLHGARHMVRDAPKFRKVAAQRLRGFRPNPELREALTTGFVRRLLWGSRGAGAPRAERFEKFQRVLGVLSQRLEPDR
# UniProt P05546: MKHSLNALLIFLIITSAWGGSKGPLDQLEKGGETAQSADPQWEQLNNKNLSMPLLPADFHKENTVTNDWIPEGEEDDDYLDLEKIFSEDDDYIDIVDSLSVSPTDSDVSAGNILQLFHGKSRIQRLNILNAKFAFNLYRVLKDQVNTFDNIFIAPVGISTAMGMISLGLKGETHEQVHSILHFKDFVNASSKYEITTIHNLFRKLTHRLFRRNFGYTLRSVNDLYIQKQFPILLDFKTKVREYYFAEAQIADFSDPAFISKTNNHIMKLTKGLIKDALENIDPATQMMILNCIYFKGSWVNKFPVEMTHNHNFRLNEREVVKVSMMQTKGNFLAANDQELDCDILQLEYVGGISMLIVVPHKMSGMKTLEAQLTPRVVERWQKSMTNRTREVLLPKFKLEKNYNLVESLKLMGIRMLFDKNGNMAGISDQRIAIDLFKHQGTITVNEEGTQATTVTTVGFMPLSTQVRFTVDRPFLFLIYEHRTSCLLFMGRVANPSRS
# UniProt Q8WWX9, whole entry, looked up: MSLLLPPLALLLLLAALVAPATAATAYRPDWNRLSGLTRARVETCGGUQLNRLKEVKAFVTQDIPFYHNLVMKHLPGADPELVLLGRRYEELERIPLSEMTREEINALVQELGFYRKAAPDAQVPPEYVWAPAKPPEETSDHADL
# UniProt Q9C0D9, whole entry, looked up: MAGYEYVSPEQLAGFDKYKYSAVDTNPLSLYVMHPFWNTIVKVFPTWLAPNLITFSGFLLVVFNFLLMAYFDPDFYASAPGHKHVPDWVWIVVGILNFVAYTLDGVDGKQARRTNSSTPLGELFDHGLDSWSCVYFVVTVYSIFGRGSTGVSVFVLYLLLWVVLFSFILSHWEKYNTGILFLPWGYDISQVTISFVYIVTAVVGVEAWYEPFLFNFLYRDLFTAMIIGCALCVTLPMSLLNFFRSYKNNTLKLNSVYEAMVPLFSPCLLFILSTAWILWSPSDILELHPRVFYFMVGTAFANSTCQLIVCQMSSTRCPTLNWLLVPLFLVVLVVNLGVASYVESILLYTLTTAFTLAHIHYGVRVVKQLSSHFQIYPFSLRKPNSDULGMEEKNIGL
# UniProt O14796: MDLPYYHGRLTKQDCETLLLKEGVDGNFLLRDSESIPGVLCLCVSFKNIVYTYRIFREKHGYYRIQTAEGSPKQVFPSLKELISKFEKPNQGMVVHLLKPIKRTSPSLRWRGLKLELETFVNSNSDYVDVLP
# UniProt Q96LD8: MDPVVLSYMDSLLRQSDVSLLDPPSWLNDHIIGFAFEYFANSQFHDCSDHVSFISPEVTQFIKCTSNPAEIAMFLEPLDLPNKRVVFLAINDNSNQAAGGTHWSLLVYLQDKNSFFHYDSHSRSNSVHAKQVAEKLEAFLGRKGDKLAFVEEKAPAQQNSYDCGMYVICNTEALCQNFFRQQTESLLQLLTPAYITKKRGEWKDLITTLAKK
# UniProt Q6PI26: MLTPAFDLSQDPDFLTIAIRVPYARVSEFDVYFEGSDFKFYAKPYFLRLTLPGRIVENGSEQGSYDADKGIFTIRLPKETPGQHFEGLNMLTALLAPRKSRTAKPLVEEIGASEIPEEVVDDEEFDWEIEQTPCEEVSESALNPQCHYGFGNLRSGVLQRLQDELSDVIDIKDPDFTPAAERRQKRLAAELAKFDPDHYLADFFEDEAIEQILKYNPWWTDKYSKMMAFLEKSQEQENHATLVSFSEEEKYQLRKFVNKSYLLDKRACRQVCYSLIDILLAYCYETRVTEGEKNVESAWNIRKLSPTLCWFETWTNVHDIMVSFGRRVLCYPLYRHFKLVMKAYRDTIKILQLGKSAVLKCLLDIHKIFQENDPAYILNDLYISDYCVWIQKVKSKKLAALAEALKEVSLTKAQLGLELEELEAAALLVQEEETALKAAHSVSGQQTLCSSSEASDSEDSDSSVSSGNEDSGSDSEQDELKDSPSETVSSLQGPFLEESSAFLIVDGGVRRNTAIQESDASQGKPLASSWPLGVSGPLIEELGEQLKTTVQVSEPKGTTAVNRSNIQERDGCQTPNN
# UniProt Q9H0F6: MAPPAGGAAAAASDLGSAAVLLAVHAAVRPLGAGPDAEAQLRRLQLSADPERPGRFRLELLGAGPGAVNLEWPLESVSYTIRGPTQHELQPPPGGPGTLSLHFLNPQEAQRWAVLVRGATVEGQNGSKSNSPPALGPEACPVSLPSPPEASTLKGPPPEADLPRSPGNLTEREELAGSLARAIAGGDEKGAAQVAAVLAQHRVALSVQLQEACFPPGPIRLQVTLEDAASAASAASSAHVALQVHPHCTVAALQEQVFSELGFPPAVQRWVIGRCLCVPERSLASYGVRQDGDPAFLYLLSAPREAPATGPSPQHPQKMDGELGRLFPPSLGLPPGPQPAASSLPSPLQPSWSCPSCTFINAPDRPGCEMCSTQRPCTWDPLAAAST
# The list shows a part of the results.
# Assays:
# Test in all cases: log2 fold change, soluble protein after heating vs DMSO (PISA); higher = thermal stabilisation; K562 cells, 10 uM, 30 min; active = over 0.2 and 3.5 SD of the protein, either way, in both replicates (recomputed)
# [1] = compound: Cc1cn(-c2cc(NC(=O)c3ccc(C)c(Nc4nccc(-c5cccnc5)n4)c3)cc(C(F)(F)F)c2)cn1 [nilotinib]
# Method in brief: (§1)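 Soluble protein was quantified by TMTpro 16plex LC-MS/MS after channel sums were equalised. It was obtained as the supernatant after 21,000xg for 90 min from pooled aliquots of K562 cells (2×10^6 cells/mL, 10 μM compound, 30 min) heated for 3 min across 48°C-58°C and extracted in PBS with 0.5% NP-40 at 4°C. Thermal stability values are relative to control samples and come from duplicates. They are given as log2 fold changes.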
# [2] = compound: Cc1nc(Nc2n[nH]c3c2CN(C(=O)N[C@H](CN(C)C)c2ccccc2)C3(C)C)c2sccc2n1
# Method in brief: as §1
# [3] = compound: Cc1nc(Nc2ncc(C(=O)Nc3c(C)cccc3Cl)s2)cc(N2CCN(CCO)CC2)n1 [dasatinib]
# Method in brief: as §1
# [4] = compound: Cc1ncc(-c2ccnc(Nc3ccc(S(C)(=O)=O)cc3)n2)n1C(C)C
# Method in brief: as §1
# [5] = compound: FC(F)(F)c1ccc(/C=C/c2nc(COc3ccc(CCCCn4ccnn4)cc3)co2)cc1 [mubritinib]
# Method in brief: as §1
# [6] = compound: Cn1cc(-c2ccc3c(c2)CCN3C(=O)Cc2cccc(C(F)(F)F)c2)c2c(N)ncnc21
# Method in brief: as §1
# [7] = compound: Cn1cc(-c2ccc3nnc(C(F)(F)c4ccc5ncccc5c4)n3n2)cn1
# Method in brief: as §1
# [8] = compound: Cn1cncc1[C@@](N)(c1ccc(Cl)cc1)c1ccc2c(c1)c(-c1cccc(Cl)c1)cc(=O)n2C [tipifarnib]
# Method in brief: as §1
# [9] = compound: Cc1ccc(NC(=O)c2ccc(CN3CC[C@H](N(C)C)C3)c(C(F)(F)F)c2)cc1Nc1nccc(-c2cncnc2)n1 [bafetinib]
# Method in brief: as §1
# [10] = compound: Cc1cccc(CC(=O)N2CCc3c2ccc(-c2cn(C)c4ncnc(N)c24)c3F)n1
# Method in brief: as §1
target,measurement,setting,value
SERPINA12 (UniProt Q8IW75),log2 fold change,[1],inactive: 0.311
same,log2 fold change,[2],inactive: -0.025
same,log2 fold change,[3],inactive: -0.967
same,log2 fold change,[4],inactive: 0.077
same,log2 fold change,[5],inactive: -0.084
SERAC1 (UniProt Q96JX3),log2 fold change,[1],inactive: 0.047
same,log2 fold change,[2],inactive: -0.236
same,log2 fold change,[4],inactive: 0.111
same,log2 fold change,[6],inactive: -0.115
same,log2 fold change,[5],inactive: -0.027
SH3GL3 isoform 3 (UniProt Q99963),log2 fold change,[7],inactive: -0.31
same,log2 fold change,[8],inactive: 0.059
same,log2 fold change,[5],inactive: 0.053
SFR1 isoform 2 (UniProt Q86XK3),log2 fold change,[9],inactive: 0.086
same,log2 fold change,[6],inactive: -0.116
same,log2 fold change,[7],inactive: -0.023
same,log2 fold change,[5],inactive: 0.089
SH2D2A isoform 2 (UniProt Q9NP31),log2 fold change,[10],inactive: -0.188
same,log2 fold change,[1],inactive: 0.013
same,log2 fold change,[2],inactive: 0.015
same,log2 fold change,[3],inactive: -0.077
same,log2 fold change,[4],inactive: 0.011
same,log2 fold change,[6],inactive: -0.09
same,log2 fold change,[8],inactive: -0.006
same,log2 fold change,[5],inactive: -0.113
SHROOM4 (UniProt Q9ULL8),log2 fold change,[10],inactive: 0.063
same,log2 fold change,[3],inactive: 0.239
same,log2 fold change,[6],inactive: -0.381
same,log2 fold change,[8],inactive: 0.247
same,log2 fold change,[5],inactive: 0.07
SERPING1 isoform 3 (UniProt P05155),log2 fold change,[3],inactive: -0.093
same,log2 fold change,[6],inactive: 0.303
SFT2D1 (UniProt Q8WV19),log2 fold change,[7],inactive: 0.049
same,log2 fold change,[8],inactive: -0.085
same,log2 fold change,[5],inactive: 0.045
SIK3 (UniProt H0Y4E8),log2 fold change,[10],inactive: -0.122
same,log2 fold change,[1],inactive: -0.053
same,log2 fold change,[2],inactive: -0.179
same,log2 fold change,[3],inactive: -0.037
same,log2 fold change,[4],inactive: 0.003
same,log2 fold change,[6],inactive: -0.016
same,log2 fold change,[7],inactive: 0
same,log2 fold change,[8],inactive: 0.251
same,log2 fold change,[5],inactive: -0.035
SHROOM1 (UniProt Q2M3G4),log2 fold change,[9],inactive: 0.375
same,log2 fold change,[6],inactive: -0.072
same,log2 fold change,[7],inactive: -0.185
same,log2 fold change,[8],inactive: 0.196
SGSH (UniProt P51688),log2 fold change,[1],inactive: -0.146
same,log2 fold change,[2],inactive: -0.13
same,log2 fold change,[4],inactive: -0.016
same,log2 fold change,[6],inactive: -0.122
SKA2 (UniProt Q8WVK7),log2 fold change,[10],inactive: 0.001
same,log2 fold change,[7],inactive: -0.241
SF1 (UniProt H7BZT1),log2 fold change,[7],inactive: -0.215
SIK2 (UniProt Q9H0K1),log2 fold change,[9],inactive: 0.058
same,log2 fold change,[7],inactive: -0.06
same,log2 fold change,[8],inactive: 0.199
same,log2 fold change,[5],inactive: 0.002
SKA1 (UniProt Q96BD8),log2 fold change,[10],inactive: 0.079
same,log2 fold change,[1],inactive: -0.276
same,log2 fold change,[2],inactive: -0.24
same,log2 fold change,[3],inactive: 0.096
same,log2 fold change,[4],inactive: 0.042
same,log2 fold change,[6],inactive: -0.325
same,log2 fold change,[7],inactive: -0.164
same,log2 fold change,[8],inactive: 0.066
same,log2 fold change,[5],inactive: 0.081
SETD2 (UniProt Q9BYW2),log2 fold change,[10],inactive: 0.036
SIAH2 (UniProt O43255),log2 fold change,[9],inactive: -0.042
same,log2 fold change,[1],inactive: 0.027
same,log2 fold change,[2],inactive: -0.166
same,log2 fold change,[4],inactive: -0.01
same,log2 fold change,[6],inactive: -0.073
same,log2 fold change,[7],inactive: 0.011
same,log2 fold change,[8],inactive: 0.009
same,log2 fold change,[5],inactive: -0.155
SEMG1 (UniProt P04279),log2 fold change,[6],inactive: 0.036
same,log2 fold change,[5],inactive: 0.072
SEMA7A (UniProt O75326),log2 fold change,[10],inactive: 0.04
same,log2 fold change,[7],inactive: 0.074
SH2D3A (UniProt Q9BRG2),log2 fold change,[1],inactive: -0.001
same,log2 fold change,[2],inactive: -0.385
same,log2 fold change,[4],inactive: 0.12
same,log2 fold change,[7],inactive: 0.047
SKAP2 (UniProt O75563),log2 fold change,[3],inactive: 0.008
same,log2 fold change,[7],inactive: 0.018
same,log2 fold change,[8],inactive: 0.154
same,log2 fold change,[5],inactive: -0.043
SECISBP2 (UniProt Q96T21),log2 fold change,[10],inactive: -0.133
same,log2 fold change,[1],inactive: 0.158
same,log2 fold change,[2],inactive: -0.113
same,log2 fold change,[4],inactive: -0.165
same,log2 fold change,[7],inactive: 0.029
same,log2 fold change,[5],inactive: 0.213
SETDB1 (UniProt Q15047),log2 fold change,[10],inactive: -0.036
same,log2 fold change,[1],inactive: -0.263
same,log2 fold change,[2],inactive: 0.1
same,log2 fold change,[3],inactive: 0.025
same,log2 fold change,[4],inactive: 0
same,log2 fold change,[6],inactive: 0.091
same,log2 fold change,[7],inactive: 0.007
same,log2 fold change,[8],inactive: 0.018
same,log2 fold change,[5],inactive: 0.052
SIGIRR (UniProt H0YDR5),log2 fold change,[10],inactive: -0.195
SIRT3 (UniProt Q9NTG7),log2 fold change,[10],inactive: 0.025
same,log2 fold change,[3],inactive: -0.021
same,log2 fold change,[7],inactive: -0.019
same,log2 fold change,[5],inactive: 0.087
SERPIND1 (UniProt P05546),log2 fold change,[10],inactive: -0.363
same,log2 fold change,[1],inactive: 0.71
same,log2 fold change,[2],inactive: 0.674
same,log2 fold change,[4],inactive: -0.319
same,log2 fold change,[6],inactive: 0.027
same,log2 fold change,[5],inactive: -0.351
SERPINB5 (UniProt P36952),log2 fold change,[9],inactive: 0.736
same,log2 fold change,[3],inactive: -0.692
same,log2 fold change,[7],inactive: 0.332
same,log2 fold change,[5],inactive: -0.166
SELENOM (UniProt Q8WWX9),log2 fold change,[1],inactive: 0.256
same,log2 fold change,[2],inactive: -0.114
same,log2 fold change,[4],inactive: 0.137
"SERPINB6, A0A2R8Y7E5",log2 fold change,[9],inactive: 0.414
same,log2 fold change,[5],inactive: -0.147
SELENOI (UniProt Q9C0D9),log2 fold change,[7],inactive: 0
SH2D1B (UniProt O14796),log2 fold change,[10],inactive: 0.018
same,log2 fold change,[1],inactive: -0.421
same,log2 fold change,[2],inactive: -0.319
same,log2 fold change,[3],active: -1.18
same,log2 fold change,[4],inactive: 0.005
same,log2 fold change,[6],inactive: -0.358
same,log2 fold change,[7],inactive: -0.069
same,log2 fold change,[8],inactive: 0.045
same,log2 fold change,[5],inactive: -0.187
SENP8 (UniProt Q96LD8),log2 fold change,[1],inactive: -0.149
same,log2 fold change,[2],inactive: -0.163
same,log2 fold change,[4],inactive: -0.056
SELENON (UniProt Q9NZV5),log2 fold change,[7],inactive: -0.072
SHANK2 isoform 3 (UniProt Q9UPX8),log2 fold change,[1],inactive: 0.061
same,log2 fold change,[2],inactive: 0.044
same,log2 fold change,[4],inactive: -0.037
SELENOP (UniProt P49908),log2 fold change,[9],inactive: -0.356
same,log2 fold change,[5],inactive: 0.083
SFXN1 (UniProt D6RDG7),log2 fold change,[5],inactive: 0.048
SHQ1 (UniProt Q6PI26),log2 fold change,[3],inactive: -0.079
SHARPIN (UniProt Q9H0F6),log2 fold change,[1],inactive: 0.35
same,log2 fold change,[2],inactive: -0.245
same,log2 fold change,[4],inactive: 0.034
SEPTIN2 (UniProt B5MCX3),log2 fold change,[7],inactive: 0.151

# Two consecutive records out of the list so far, quoted:
target,measurement,setting,value
SERAC1 (UniProt Q96JX3),log2 fold change,[5],inactive: -0.027
SH3GL3 isoform 3 (UniProt Q99963),log2 fold change,[7],inactive: -0.31

# Some of the entries so far, with tabs.
target	measurement	setting	value
SERPINA12 (UniProt Q8IW75)	log2 fold change	[3]	inactive: -0.967
same	log2 fold change	[4]	inactive: 0.077
same	log2 fold change	[5]	inactive: -0.084
SERAC1 (UniProt Q96JX3)	log2 fold change	[1]	inactive: 0.047
same	log2 fold change	[2]	inactive: -0.236
same	log2 fold change	[4]	inactive: 0.111

# A different layout for part of the listing above:
target	measurement	setting	value
SIAH2 (UniProt O43255)	log2 fold change	[7]	inactive: 0.011
same	log2 fold change	[8]	inactive: 0.009
